Results on 35 compounds are retold here after PubChem BioAssay AID1487 (National Center for Advancing Translational Sciences (NCATS), 2009).

The term AC50 denotes the concentration at which the activity in the assay is half-maximal.

A short description of the test: qHTS Assay for Modulators of Lamin A Splicing. The conditions noted are these: HeLa LMNA splicing GFP/RFP minigene ratio, 48 h. The essentials: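 Read-out is the ratio of GFP to DsRed2 object intensity, acquired by 488 nm laser-scanning cytometry on HeLa lamin A-EGFP minigene reporter cells. Compound incubation 48 hrs at 37 °C in Opti-MEM with 2% FBS; DMSO 0.5% final.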
On the technique in general: qHTS replaces the single test concentration by a dilution series.

Where [1] appears, read: measured here: GFP splicing reporter channel.
Where [2] appears, read: measured here: RFP viability control channel.

The structures appear in SMILES notation. Some of the results follow. These are further read-outs of the screen, such as a control signal, another cell line or another target. No call is given for them. Most of these compounds were active or inconclusive in the main read-out, so they are no random draw. The note in brackets gives the kind of curve behind each potency; many fits are weak.

Regarding `CCOc1ccc(-c2cc3c(=O)n(CC(=O)Nc4cc(F)ccc4C)ccn3n2)cc1`, the AC50 is 15.8 µM [falling, single point] under setting [1] and 22.4 µM [falling, single point] under setting [2].
Regarding `OCC(O)C(O)C(O)C(O)c1nc2ccccc2[nH]1` (stereo not drawn), the half-maximal activity concentration (AC50) under setting [1] is 35.5 µM [falling, partial curve].
Take `N[C@H](CO)C(=O)O`: the half-maximal activity concentration (AC50) under setting [2] was 12.6 µM [rising, partial curve, poor fit].
On to `COCCN1Cc2cccc(C(=O)Nc3ccc(S(=O)(=O)N4CCOCC4)cc3)c2C1=O`, for which the half-maximal activity concentration (AC50) runs as follows: under setting [1], 3.98 µM [falling, single point]; under setting [2], 22.4 µM [falling, single point].
For `COc1ccc(C(=O)N2CCN(S(=O)(=O)c3ccc(C)cc3C)CC2)cc1OC`, the half-maximal activity concentration (AC50) under setting [2] was 10 µM [rising, partial curve, poor fit].
Turning to `O=C(NCc1ccncc1)Nc1cccc([N+](=O)[O-])c1`, the AC50 under setting [1] was 0.398 µM [falling, full curve, poor fit].
`COc1cccc(OC)c1C(=O)Nc1ccc(Cc2ccncc2)cc1`: the half-maximal activity concentration (AC50) under setting [2] was 35.5 µM [rising, single point].
The same measure, in the same setting: for `CC(=O)Nc1ccccc1C(=O)C(=O)Nc1cccc(C(=O)NCC2CCCO2)c1` (stereo not drawn) the value was 1.26 µM [falling, full curve, poor fit].
As to `COc1ccc(C(=O)NNc2ncnc3c2cnn3-c2ccc(C)c(Cl)c2)cc1`, the concentration at half-maximal activity (AC50) under setting [1] is 0.251 µM [falling, full curve, poor fit].
For the compound `COc1cccc(NC(=O)C(Sc2nnc(-c3ccncc3)n2-c2ccc(Cl)cc2)c2ccccc2)c1` (stereo not drawn), the AC50 under setting [1] is 12.6 µM [rising, single point].
On the same count and under the same terms, for `Cc1ccc(C(=O)O/N=C/c2c(C)nn(C)c2Cl)cc1` the value was 6.31 µM [rising, partial curve, poor fit].
For the compound `COc1ccc(CSC2=CS(=O)(=O)c3ccccc3N2)cc1`, the half-maximal activity concentration (AC50) under setting [2] is 35.5 µM [rising, single point].
On the same count and under the same terms, with `COc1ccc(CNC(=O)CSc2ncnc3ccccc23)cc1OC` the figure was 2.82 µM [rising, partial curve, poor fit].
As for `O=C(Cn1ccn(-c2ccc(F)c(F)c2)c(=O)c1=O)NCCc1ccccc1`, the AC50 is 7.08 µM [falling, full curve, poor fit] under setting [1] and 1.26 µM [falling, partial curve, poor fit] under setting [2].
As to `CN(C)/C=N/S(=O)(=O)c1cccn1-c1ncc(C(F)(F)F)cc1Cl`, the half-maximal activity concentration (AC50) is 39.8 µM [falling, partial curve] under setting [1] and 1 µM [falling, partial curve] under setting [2].
In the case of `CCN1CCN(c2nc3sc4c(c3c3ncnn23)CC(C)CC4)CC1` (stereo not drawn), the AC50 under setting [1] is 10 µM [rising, single point].
The same measure, in the same setting: with `O=C1Nc2ccc(Cl)cc2/C1=C/C1CC=CCC1` (stereo not drawn) the figure was 17.8 µM [rising, single point].
For `O=C(/C=C/c1ccco1)NC(=S)Nc1cccc([N+](=O)[O-])c1`, the AC50 under setting [2] is 4.47 µM [rising, partial curve].
Turning to `CC(=O)Nc1ccc(S(=O)(=O)NCCSCc2c(Cl)cccc2Cl)cc1`, the AC50 under setting [1] is 11.2 µM [falling, single point].
As for `CN(C)/C=C(\C=O)c1ncc(C(F)(F)F)cc1Cl`, the concentration at half-maximal activity (AC50) is 4.47 µM [rising, full curve, poor fit] under setting [1] and 4.47 µM [rising, partial curve] under setting [2].
For `CNC(=O)C1CCC(Cn2c(=O)c3sccc3n(CC(=O)NCc3ccc(OC)cc3)c2=O)CC1` (stereo not drawn), under setting [1], the AC50 is 0.794 µM [rising, full curve, poor fit].
On to `COc1ccc(-c2cc(C(F)(F)F)n3ncc(C(=O)NCc4ccco4)c3n2)cc1`, for which the AC50 is 11.2 µM [rising, partial curve, poor fit] under setting [1] and 12.6 µM [rising, single point] under setting [2].
Consider `O=C(c1ccccc1)c1ccc2nc(-c3ccco3)c(-c3ccco3)nc2c1`, for which the half-maximal activity concentration (AC50) is, setting by setting: under setting [1], 0.00447 µM [rising, full curve, poor fit]; under setting [2], 0.00447 µM [rising, full curve, poor fit].
On to `Fc1ccc(NCc2nnc(SCc3nnc(-c4ccccc4)o3)n2Cc2ccccc2)cc1`, for which the AC50 runs as follows: under setting [1], 14.1 µM [rising, single point]; under setting [2], 25.1 µM [rising, single point].
In the case of `COc1cc(-c2cc(C(=O)Nc3nc4ccccc4s3)c3ccccc3n2)cc(OC)c1OC`, the half-maximal activity concentration (AC50) is, setting by setting: under setting [1], 11.2 µM [rising, partial curve, poor fit]; under setting [2], 11.2 µM [rising, partial curve].
Consider `O=C(CSc1nnnn1-c1cccc2c1CCCC2)N1CCOCC1`, for which the AC50 by setting is: under setting [1], 14.1 µM [rising, partial curve]; under setting [2], 11.2 µM [rising, partial curve].
`COc1ccc(-n2c(C)cc(C(=O)CN3C(=O)NC4(CCCc5sccc54)C3=O)c2C)cc1` (stereo not drawn): the AC50 runs as follows: under setting [1], 11.2 µM [rising, partial curve]; under setting [2], 14.1 µM [rising, partial curve].
For the compound `CC(C)(C)c1ccc(C(=O)NCc2cccnc2)cc1`, the concentration at half-maximal activity (AC50) was 14.1 µM [rising, single point] under setting [1] and 35.5 µM [rising, single point] under setting [2].
With `Cc1ccc(C(=O)N(CC(=O)NC2CCCC2)c2ccc3c(c2)OCCO3)s1`, the AC50 runs as follows: under setting [1], 0.0794 µM [falling, full curve, poor fit]; under setting [2], 0.0891 µM [falling, full curve, poor fit].
`CC1CCCN(C(=S)Nc2ccc3nc4n(c(=O)c3c2)CCCCC4)C1` (stereo not drawn): the half-maximal activity concentration (AC50) under setting [2] was 35.5 µM [rising, single point].
Still for that read-out and setting: with `CCn1cc2c(n1)-c1c(oc(C(=O)Nc3cccc(C)c3C)c1C)CC2` the figure was 2 µM [rising, full curve, poor fit].
Same read-out and setting: with `C=CCn1c(SCC(=O)Nc2ccccc2CC)nnc1-c1ccncc1` the figure was 3.55 µM [rising, single point]; with `COC(=O)c1ccc(NC(=O)CSc2nc3cccnc3n2C)cc1`, 25.1 µM [rising, single point].
For the compound `CCCCOc1ccc(CNC(=S)N/N=C/c2ccc(OC)c(OC)c2)cc1`, under setting [2], the half-maximal activity concentration (AC50) was 11.2 µM [rising, partial curve, poor fit].
The same measure, in the same setting: with `Cc1nn(-c2ccccc2)c(N2CCCC2)c1/C=N/NC(=O)c1cc2ccccc2cc1O` the figure was 11.2 µM [rising, partial curve].
